Test results reported in article doi:10.1101/2023.10.04.560926.
Results are given in words; binding and its absence hold for the method and conditions named. Binding seen in cells or lysates may run through a third protein. Sequences can lack the tags named with a protein.

What was measured:
[1] = molecular target: IFNAR1-V5-TurboID (HEK293T) (human); test: co-IP
[2] = molecular target: IFNAR2-V5-TurboID (HEK293T) (human); test: co-IP

- binding [1]: no binding
- binding [2]: no binding
B1: Flag-PJA2 (enzyme, UniProt O43164-1 1-708)
chain: MSQYTEKEPAAMDQESGKAVWPKPAGGYQTITGRRYGRRHAYVSFKPCMTRHERSLGRAGDDYEVLELDDVPKENSSGSSPLDQVDSSLPSEPIFEKSETEIPTCGSALNQTTESSQSFVAVHHSEEGRDTLGSSTNLHNHSEGEYIPGACSASSVQNGIALVHTDSYDPDGKHGEDNDHLQLSAEVVEGSRYQESLGNTVFELENREAEAYTGLSPPVPSFNCEVRDEFEELDSVPLVKSSAGDTEFVHQNSQEIQRSSQDEMVSTKQQNNTSQERQTEHSPEDAACGPGHICSEQNTNDREKNHGSSPEQVVRPKVRKLISSSQVDQETGFNRHEAKQRSVQRWREALEVEESGSDDLLIKCEEYDGEHDCMFLDPPYSRVITQRETENNQMTSESGATAGRQEVDNTFWNGCGDYYQLYDKDEDSSECSDGEWSASLPHRFSGTEKDQSSSDESWETLPGKDENEPELQSDSSGPEEENQELSLQEGEQTSLEEGEIPWLQYNEVNESSSDEGNEPANEFAQPAFMLDGNNNLEDDSSVSEDLDVDWSLFDGFADGLGVAEAISYVDPQFLTYMALEERLAQAMETALAHLESLAVDVEVANPPASKESIDGLPETLVLEDHTAIGQEQCCPICCSEYIKDDIATELPCHHFFHKPCVSIWLQKSGTCPVCRRHFPPAVIEASAAPSSEPDPDAPPSNDSIAEAP
